Paper PMC11793977
These are yes or no findings as the source states them, for the method shown. Binding seen in cells or lysates may run through a third protein. Some results given as binding are weak or reduced against the parent protein; the word gives no strength.

Amino acid sequences for entries named in this document (tags omitted).
UniProt P62879: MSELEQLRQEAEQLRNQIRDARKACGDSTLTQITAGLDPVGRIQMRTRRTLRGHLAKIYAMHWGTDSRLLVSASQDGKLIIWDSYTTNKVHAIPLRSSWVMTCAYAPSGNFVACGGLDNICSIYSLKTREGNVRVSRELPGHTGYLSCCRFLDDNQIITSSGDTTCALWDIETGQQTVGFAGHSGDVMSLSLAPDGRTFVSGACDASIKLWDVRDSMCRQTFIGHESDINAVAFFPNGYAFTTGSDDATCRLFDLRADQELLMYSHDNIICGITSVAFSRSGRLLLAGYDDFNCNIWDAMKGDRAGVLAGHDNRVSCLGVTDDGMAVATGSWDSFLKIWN
UniProt O14610: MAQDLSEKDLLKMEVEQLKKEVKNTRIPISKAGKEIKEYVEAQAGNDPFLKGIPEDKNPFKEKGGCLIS

Molecular target: Venus (155–209)-β2 (UniProt P62879)
Experiment: split reporter; Venus complementation in living HeLa cells also expressing OptoGDI and Lyn-CIBN; 515 nm excitation, 542 nm emission

Venus (1–155)-γ9 (from UniProt O14610 1-69)
binding: binds
